Laboratory results published in article PMC3307728.

How the values were obtained:
DEAF1 (167-565) (human) = molecular target: T1, DEAF1 (167-565) (human) (UniProt O75398); test: competition with a labelled probe; conditions: indirect: modest decrease of pull-down by GST-Ku70(550-609); EMSA: 100 mM KCl, 50 mM Tris pH 7.5, 1 mM DTT, 25 °C, 30 min protein preincubation then 30 min with 32P probe; 4% native gel; protein translated in vitro; residues 167-565; label: 32P in EMSA
T1 sequence (looked up): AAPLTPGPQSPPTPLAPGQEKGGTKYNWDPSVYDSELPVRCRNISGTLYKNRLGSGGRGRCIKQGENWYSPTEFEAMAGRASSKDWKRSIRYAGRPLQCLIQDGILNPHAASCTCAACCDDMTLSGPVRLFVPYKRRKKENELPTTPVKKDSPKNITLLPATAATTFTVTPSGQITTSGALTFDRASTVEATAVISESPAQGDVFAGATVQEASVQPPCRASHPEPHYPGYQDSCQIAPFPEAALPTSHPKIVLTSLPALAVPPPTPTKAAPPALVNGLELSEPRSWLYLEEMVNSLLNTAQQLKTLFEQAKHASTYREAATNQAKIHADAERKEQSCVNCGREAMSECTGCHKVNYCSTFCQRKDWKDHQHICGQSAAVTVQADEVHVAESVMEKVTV

DEAF1-FLAG (human) = molecular target: T2, DEAF1-FLAG (human) (UniProt O75398); test: EMSA; conditions: with Ku70/FLAG-Ku80 present, no apparent effect, no supershift; EMSA: 100 mM KCl, 50 mM Tris pH 7.5, 1 mM DTT, 25 °C, 30 min protein preincubation then 30 min with 32P probe; 4% native gel; recombinant protein; residues 1-565; label: 32P in EMSA
T2 sequence (looked up): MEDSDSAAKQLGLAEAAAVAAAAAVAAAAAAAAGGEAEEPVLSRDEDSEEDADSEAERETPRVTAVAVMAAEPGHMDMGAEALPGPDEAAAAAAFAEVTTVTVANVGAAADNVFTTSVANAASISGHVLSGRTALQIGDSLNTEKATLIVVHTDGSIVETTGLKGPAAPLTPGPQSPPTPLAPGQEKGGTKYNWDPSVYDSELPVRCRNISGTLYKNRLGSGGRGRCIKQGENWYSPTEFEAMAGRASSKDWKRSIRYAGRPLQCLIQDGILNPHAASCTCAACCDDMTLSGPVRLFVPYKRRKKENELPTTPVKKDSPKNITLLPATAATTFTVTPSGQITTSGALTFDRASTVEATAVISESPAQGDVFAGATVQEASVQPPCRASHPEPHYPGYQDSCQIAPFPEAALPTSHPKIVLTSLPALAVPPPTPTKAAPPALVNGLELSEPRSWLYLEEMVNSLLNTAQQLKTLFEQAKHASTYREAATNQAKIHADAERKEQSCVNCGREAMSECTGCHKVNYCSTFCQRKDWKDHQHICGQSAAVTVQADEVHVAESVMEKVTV

## TTCGGCTTCCCACTTCGG (double strand) [N52-69]
DEAF1 (167-565) (human)
  binding result: binds

## TTTTGCTTCCCACTTTTG (double strand) [Mut 2]
DEAF1-FLAG (human)
  binding result: no binding

For some assays here: No signal at the amounts used counts as a negative. At least one verdict was read from the data and is not stated in words by the source. Where a protein sequence is shown, tags need not be part of it. For some assays here: Construct, isoform or probe ends are uncertain for at least one entry.
